Laboratory results reported in PubChem BioAssay AID504444 (National Center for Advancing Translational Sciences (NCATS), 2011).
Screen size: about 360,000 compounds; about 7,500 (2.1%) were called active. This list was built around the results that the source calls inconclusive (neither active nor inactive); the mix of calls is not that of the screen. The call rests on the fitted dose curve; in most records, active means well fitted inhibition curve with a large enough effect; inconclusive means small, poorly fitted or top-dose-only effect, or effect the other way; inactive means flat fitted curve, though single readings scatter. Potencies beside an inconclusive call are fits to weak or partial responses and may not hold up.
Potency means the concentration at half of the fitted maximal effect.

Assay: Nrf2 qHTS screen for inhibitors; further: nearly all actives have a fitted effect of over 60% in size
Conditions: A549 ARE-Fluc reporter, luciferase luminescence, 18-24 h; series mostly up to 46 µM
Method in brief: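 In this cell-based qHTS, ARE-driven firefly luciferase in A549 cells reports Nrf2 activity; the luminescent signal after BugLite lysis is the measured value, with a prior CellTiter-Fluor read for cell health.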
For `O=C(O)c1ccc(N/N=C/C=C/c2ccccc2[N+](=O)[O-])cc1`, the Potency was inconclusive: 3.26 µM [activator, single point]. In the case of `O=C(O)c1ccc(NCc2nc3ccccc3n2Cc2ccccc2)cc1`, the Potency is reported as inconclusive: 23.1 µM [falling, single point]. In the case of `O=C(CC(NS(=O)(=O)c1ccc(Cl)cc1)c1ccco1)NCc1ccco1` (stereo unspecified), the Potency is reported as inconclusive: 10.3 µM [activator, partial curve, poor fit]. For `O=C1CC(c2nc3ccccc3n2CCC2CCCCC2)CN1c1ccccc1Cl` (stereo unspecified), the Potency was inconclusive: 29.1 µM [falling, single point]. For `CCCC1CCC(c2ccc(C(N)=O)cc2)CC1` (stereo unspecified), the Potency was “inactive”. With `CCSc1nc2c(c(=O)[nH]1)C(c1ccc(C)cc1)C1=C(CCCC1=O)N2` (stereo unspecified) the Potency was “inactive”. With `Cc1ccc(NC(=S)NCCC(c2ccccc2)c2ccccc2)c(C)c1` the Potency was inconclusive: 23.1 µM [falling, partial curve, poor fit]. For `Nc1c(-c2cccc(Cl)c2)cnn1-c1cccc([N+](=O)[O-])c1`, the Potency was inconclusive: 29.1 µM [activator, single point]. In the case of `O=C(NC1CCCC1)C(c1ccco1)N(C(=O)c1ccco1)c1ccccc1` (stereo unspecified), the Potency is reported as inconclusive: 20.6 µM [falling, single point]. For `CC(=O)c1cccc(NC(=O)C2=CC(c3ccc(F)cc3)=NS(=O)(=O)N2C)c1`, the Potency was “inactive”. In the case of `Cc1ccccc1OCC(=O)NC1=NCCS1`, the Potency is reported as inconclusive: 6.51 µM [activator, single point]. For `CCc1cccc(CC)c1N(COC)C(=O)Cn1c(CC)nc2ccccc21`, the Potency was inconclusive: 20.6 µM [falling, partial curve]. For `CC(=O)N1CC=C2C(C#N)=C(N)C(C#N)(C#N)C(CCc3ccccc3)C2C1` (stereo unspecified), the Potency was “inactive”. In the case of `CC1=NOC(=O)/C1=C\c1ccc(-c2ccc(Cl)cc2Cl)o1`, the Potency is reported as inconclusive: 3.26 µM [activator, partial curve, poor fit]. In the case of `COc1ccc(OC)c(Cc2nnc(CCC(=O)N3CCCCC3)o2)c1`, the Potency is reported as inconclusive: 23.1 µM [activator, single point]. With `Cc1cc(SCC(=O)N(C)CC(=O)Nc2ccc(F)cc2)nc2ccccc12` the Potency was “inactive”. With `CN(C)S(=O)(=O)c1ccc(S(=O)(=O)NCc2ccc3c(c2)OCO3)cc1` the Potency was “inactive”. For `Cc1oc2c(c1C(=O)Nc1cccc(C(=O)O)c1)CCCC2`, the Potency was inconclusive: 16.4 µM [activator, single point]. With `CCOC(=O)c1c(C)c(C(=O)Nc2cc(OC)ccc2OC)c(C)n1CC` the Potency was inconclusive: 23.1 µM [falling, partial curve]. In the case of `O=C(CCNC(=O)c1ccc(Br)cc1)NCCCc1ccccc1`, the Potency is reported as inconclusive: 29.1 µM [activator, single point]. For `Cc1ccc(C)c(N2CCN(C(=O)C3CCN(S(=O)(=O)c4ccc5[nH]c(=O)oc5c4)CC3)CC2)c1`, the Potency was inconclusive: 9.2 µM [falling, partial curve]. In the case of `Cc1noc(C)c1C(=O)OCC(=O)/C=C1/N(C)c2ccccc2C1(C)C`, the Potency is reported as inconclusive: 20.6 µM [falling, single point]. For `O=C(CN(Cc1ccccc1)S(=O)(=O)c1ccccc1)N/N=C/c1ccccc1[N+](=O)[O-]`, the Potency was inconclusive: 29.1 µM [falling, single point]. In the case of `CC1CCN(C(=O)c2cc3c(ccc4ccccc43)o2)CC1`, the Potency is reported as inconclusive: 4.11 µM [activator, partial curve]. For `C/C(=N\NC(=O)c1ccc(Cl)c(S(=O)(=O)Nc2ccccc2Cl)c1)c1ccncc1`, the Potency was inconclusive: 9.2 µM [falling, partial curve, poor fit]. For `COc1cc(NC(=O)c2c(F)c(F)c(OC)c(F)c2F)ccc1NC(=O)c1cccs1`, the Potency was inconclusive: 1.84 µM [falling, partial curve, poor fit]. For `COc1cccc(-n2nc(C(N)=O)c(O)cc2=O)c1`, the Potency was “inactive”. In the case of `CCCCN(C(=O)c1ccc(C)cc1)c1c(N)n(CCC)c(=O)[nH]c1=O`, the Potency is reported as “inactive”. With `COc1cc(/C=N/Nc2nc3ccccc3o2)cc(OC)c1O` the Potency was inconclusive: 2.06 µM [falling, partial curve, poor fit]. In the case of `Cc1ccc2c(CC(=O)N3CCc4ccccc43)coc2c1`, the Potency is reported as inconclusive: 5.62 µM [activator, partial curve, poor fit]. In the case of `Cc1cc(C(=O)CN2CCCC(C)C2)c(C)n1-c1ccc(F)cc1` (stereo unspecified), the Potency is reported as inconclusive: 10.3 µM [activator, partial curve]. For `COc1ccc(CN2CCc3nc(Nc4ccccc4)ncc3C2)c(OC)c1OC`, the Potency was inconclusive: 20.6 µM [falling, single point]. In the case of `CCOc1ccc2nc(N3CCC(C(=O)Nc4nnc(CC)s4)CC3)sc2c1`, the Potency is reported as inconclusive: 2.06 µM [activator, full curve, poor fit]. In the case of `Cc1nnc(SCC(=O)N2CCOCC2)c2ccccc12`, the Potency is reported as active: 9.2 µM. For `COc1ccc(C2=Nn3c(nnc3-c3ccc(OC)cc3OC)SC2)cc1`, the Potency was inconclusive: 0.206 µM [activator, full curve]. For `CCOc1ccc(-n2c(O)c(/C=N/c3ccnn3Cc3ccncc3)c3ccccc3c2=O)cc1`, the Potency was inconclusive: 29.1 µM [falling, single point]. In the case of `Cc1cccc(/N=C/c2c(O)c3ccccc3oc2=O)n1`, the Potency is reported as inconclusive: 20.6 µM [falling, single point]. For `COc1ccc(Cl)cc1NC(=O)Nc1cccc([N+](=O)[O-])c1C`, the Potency was active: 13 µM. In the case of `NNc1nc(-c2ccccc2)cs1`, the Potency is reported as inconclusive: 23.1 µM [activator, partial curve, poor fit]. With `Cc1oc(S(=O)(=O)N2CCCC2)cc1C(=O)Nc1ccccc1` the Potency was inconclusive: 18.4 µM [falling, single point]. In the case of `CN(C(=O)CSc1nc2ccc(NC(=O)c3ccccc3F)cc2s1)c1ccccc1`, the Potency is reported as inconclusive: 18.4 µM [falling, single point]. For `CCOc1ccccc1N(C)S(=O)(=O)c1ccc2c(c1)CC(C)N2C(=O)C1CC1` (stereo unspecified), the Potency was inconclusive: 20.6 µM [falling, single point]. With `Cc1cc(O)c(NC(=O)c2ccc(Br)o2)cc1C` the Potency was inconclusive: 9.2 µM [activator, single point]. In the case of `Clc1ccc(-c2noc(CN3CCCC3)n2)cc1`, the Potency is reported as inconclusive: 4.61 µM [activator, full curve, poor fit]. In the case of `COc1ccc(CSc2ccc(S(=O)(=O)N3CCCCC3)cn2)cc1F`, the Potency is reported as inconclusive: 32.6 µM [falling, partial curve, poor fit]. For `COc1ccc2[nH]cc(S(=O)(=O)c3ccc(F)cc3)c(=O)c2c1`, the Potency was inconclusive: 4.61 µM [falling, full curve, poor fit]. In the case of `CN(C(=O)c1cccc(C(F)(F)F)c1)C1CCCc2ccccc21` (stereo unspecified), the Potency is reported as inconclusive: 5.8 µM [activator, full curve, poor fit]. With `Cc1ccc(Cl)cc1N1CCN(Cc2nnnn2Cc2ccco2)CC1` the Potency was inconclusive: 32.6 µM [falling, single point]. In the case of `Cc1cc2n(n1)C(c1ccc(O)cc1)Nc1ccccc1-2` (stereo unspecified), the Potency is reported as active: 18.4 µM. In the case of `O=[N+]([O-])c1ccc(CCNc2cccc3ccccc23)c([N+](=O)[O-])c1`, the Potency is reported as inconclusive: 13 µM [activator, partial curve, poor fit]. For `CCc1ccc(-n2nc3ccc(NC(=O)c4cc(Cl)c(OC)c(Cl)c4)cc3n2)cc1`, the Potency was inconclusive: 6.51 µM [falling, partial curve, poor fit]. With `COc1ccc(-c2ccc3ncnc(NCc4nc(C)cs4)c3c2)cc1OC` the Potency was inconclusive: 2.91 µM [falling, partial curve, poor fit]. For `O=C(CSc1ccc(-c2ccc(-n3cccn3)cc2)nn1)Nc1ccc([N+](=O)[O-])cc1`, the Potency was inconclusive: 16.4 µM [activator, partial curve, poor fit]. In the case of `CCOc1ccc(CNC(=O)Cn2nc(C)n3cccc3c2=O)cc1`, the Potency is reported as inconclusive: 29.1 µM [activator, single point]. For `O=C(Nc1ccccc1)N1N=C(c2cccs2)CC1c1cccs1` (stereo unspecified), the Potency was active: 23.1 µM. In the case of `CCNc1nc(Oc2c(Cl)cccc2Cl)cc(C(F)(F)F)n1`, the Potency is reported as inconclusive: 32.6 µM [falling, single point]. With `Cc1cc2cc(C(=O)N3CCc4c([nH]c5ccccc45)C3c3ccccn3)ccc2o1` (stereo unspecified) the Potency was inconclusive: 23.1 µM [falling, single point]. With `CCCCn1c(N)c(N(Cc2ccccc2OC)C(=O)c2ccc([N+](=O)[O-])s2)c(=O)[nH]c1=O` the Potency was “inactive”. In the case of `CN(C)c1ccc(N=Nc2nc3ccccc3n2C)cc1`, the Potency is reported as “inactive”. In the case of `CCOC(=O)c1cccc(NC(=O)c2ccc(NC(=O)c3ccco3)cc2)c1`, the Potency is reported as active: 20.6 µM. In the case of `Cc1ccc(Nc2nc3ccccc3s2)cc1`, the Potency is reported as inconclusive: 8.2 µM [activator, single point]. In the case of `COc1ccccc1OCC(=O)Nc1nnc(-c2ccco2)s1`, the Potency is reported as “inactive”. In the case of `CC(C)(C)c1nc2c(s1)CCc1onc(-c3ccc(Cl)cc3)c1-2`, the Potency is reported as “inactive”. With `CCc1ccc(S(=O)(=O)Nc2cccc(-c3ccc4nnc(C)n4n3)c2)s1` the Potency was inconclusive: 25.9 µM [falling, single point]. In the case of `CCN(CC)S(=O)(=O)c1ccc(C)c(NC(=O)CSc2nc3ccc(C)cc3[nH]2)c1`, the Potency is reported as inconclusive: 7.31 µM [falling, partial curve, poor fit]. For `CN1C(=O)[C@H]2[C@@H](C3CC3)N3C(=O)CN(CC4CC4)C(=O)[C@@]3(C)[C@H]2C1=O`, the Potency was inconclusive: 29.1 µM [activator, single point].
